Experiment [1] addresses T1, AtEH1FL-GFP (A. thaliana) (UniProt Q9LM78).
T1 sequence: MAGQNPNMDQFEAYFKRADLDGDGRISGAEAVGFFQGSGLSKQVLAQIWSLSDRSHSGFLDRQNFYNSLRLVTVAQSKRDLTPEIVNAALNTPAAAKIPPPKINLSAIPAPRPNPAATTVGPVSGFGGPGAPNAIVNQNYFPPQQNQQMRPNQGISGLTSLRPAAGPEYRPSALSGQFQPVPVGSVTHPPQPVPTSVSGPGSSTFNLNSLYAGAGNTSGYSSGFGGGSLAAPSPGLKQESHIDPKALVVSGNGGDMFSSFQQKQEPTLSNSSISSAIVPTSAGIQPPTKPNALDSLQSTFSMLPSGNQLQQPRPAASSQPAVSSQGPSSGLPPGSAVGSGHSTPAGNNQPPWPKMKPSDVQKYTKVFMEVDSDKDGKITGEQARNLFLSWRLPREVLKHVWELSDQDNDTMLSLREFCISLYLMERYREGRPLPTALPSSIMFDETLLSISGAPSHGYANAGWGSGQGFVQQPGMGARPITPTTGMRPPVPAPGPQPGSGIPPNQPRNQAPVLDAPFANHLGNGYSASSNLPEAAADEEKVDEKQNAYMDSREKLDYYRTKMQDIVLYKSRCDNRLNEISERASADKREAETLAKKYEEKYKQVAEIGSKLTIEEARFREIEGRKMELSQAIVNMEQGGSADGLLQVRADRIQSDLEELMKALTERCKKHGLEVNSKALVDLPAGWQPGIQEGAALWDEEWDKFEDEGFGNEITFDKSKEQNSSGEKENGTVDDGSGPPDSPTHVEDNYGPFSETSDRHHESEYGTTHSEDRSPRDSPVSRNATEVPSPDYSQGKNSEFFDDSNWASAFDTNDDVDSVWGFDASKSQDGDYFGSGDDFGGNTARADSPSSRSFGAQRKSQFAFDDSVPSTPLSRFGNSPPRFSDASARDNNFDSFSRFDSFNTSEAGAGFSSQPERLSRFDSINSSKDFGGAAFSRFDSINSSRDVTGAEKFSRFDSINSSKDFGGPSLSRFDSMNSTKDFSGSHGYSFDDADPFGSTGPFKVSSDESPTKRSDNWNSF
The experiment is described as follows: partitioning assay (confocal microscopy of condensates in cells); scaffold AtEH1-GFP (FL or ΔIDR3) co-expressed with client-mScarlet in N. benthamiana epidermal cells; partitioning coefficient at AtEH1 positive foci (MitoTally script).

For experiment [2], the target named is AtEH1_(ΔIDR3)-GFP (A. thaliana). Described as above.

These are yes or no findings as the source states them, for the method shown. For some of these results: A result given as binding can be weak or reduced; the word gives no strength. For some of these results: Where a sequence is shown, tags or fusion partners need not be part of it.

Turning to PICALM3-mScarlet (A. thaliana), in experiment [1], the binding result is “no binding”.

B1: TOL6-mScarlet (protein, UniProt O80910 1-671)
chain: MASSSASATVAVDKATSDLLLGPDWTTNMEICDSVNSLHWQAKDVVKAVKKRLQHKSSRVQLLALTLLETLVKNCGDYLHHQVAEKNILGEMVKIVKKKADMQVRDKILVMVDSWQQAFGGPEGKYPQYYWAYDELRRSGVEFPRRSPDASPIITPPVSHPPLRQPQGGYGVPPAGYGVHQAGYGVPQAGYGIPQAGYGVPQAGYGIPQVGYGMPSGSSRRLDEAMATEVEGLSLSSIESMRDVMDLLGDMLQAVDPSDREAVKDEVIVDLVERCRSNQKKLMQMLTSTGDDELLGRGLDLNDSLQILLAKHDAIASGSPLPVQASGSPLSVQASKPADSSPKSSEAKDSSSIAGSSSPIPATVSTGKSPIDEEYEEEEDEFAQLARRHSKPPASVTTDPTSLESHNAASNALALALPDPPPPVNTTKEQDMIDLLSITLCTPSTPPAPSSQPSPPPPAGSDQNTHIYPQPQPRFDSYVAPWAQQQQPQQPQAQQGYSQHQQHQQQQGYSQPQHSQQQQGYSQLQQPQPQQGYSQSQPQAQVQMQPSTRPQNPYEYPPPPWASTSANAYYTPRANASASYTDTSALAGRSLQQSNSFPTRAGDPQATSTASNSGVSVGQKPFVPSYRLFEDLDVFGSADGKHNKPANSSNGSQNLSGSQTQQSMIGGRKMI
Take B1: in experiment [2], the binding result was “binds”.

B2: AUXL1-mScarlet (protein, UniProt Q9SU08 1-904)
chain: MDDFTGLLARDFGLKPQGKSAPMASQSNSSAADFNTFASSYSFATAAGKKSDSLPVFDDPGRDGDDLLFKDVFSGPPPPKYGSSSGDSRSPSAPAFDYDAMFKEPKSKSASSMPVYDKPVYDDEDVFESIPELKIPSTSSQSARFENVFSSISSSPTKHRKQNSSPFDDLMGNNLGKKGADSDREEKGSSIFDDLIPGFGRTSSPPSKRTTSETTNQSEKAPYRTAETSSNVEEDPFVVLEESESTPREPSRTDPLDDIGKFNSRKTDHSSVHGGVFVDIDPLDNLGKPGPDMNSKGKSHLRPPGNISGSQSPPVESPGSYHSKKVSFEDFLEPHNMSTPPPTNSNGSFESSDDVWLTVSEIPLFTQPTSAPPPTRPPPPRPTRPIKKKVNEPSIPTSAYHSHVPSSGRASVNSPTASQMDELDDFSIGRNQTAANGYPDPSSGEDSDVFSTAAASAAAMKDAMDKAEAKFRHAKERREKENLKASRSREGDHTENYDSRERELREKQVRLDRERAEREAEMEKAQEREKEEREREQKRIERERERLVARQAVERATREARERAATEAHAKVQRAAVGKATDARERAERAAVQRAHAEARERAAAGARDKAAKAAAEAREKAEKAAAEAKERANAEAREKETRVRAERAAVERAAAEARGRAAAQAKAKQQQENTNDLDSFFSSISRPNSAPRQRTNPLDPFQDSWNKGGSFESSRESLRVPPGQPENLRKTSSVTNIVDDLSSIFGASASQSGGFQDVDGETEERRRARLERHQRTQERAAKALAEKNERDLQVQREQVEKDRIGVTLDVEIKRWGAGKEGNLRALLSTLQYVLWPECGWQPVSLTDLITAASVKKVYRKATLCIHPDKVQQKGANLQQKYIAEKVFDMLKEAWNKFNSEELF
As to B2, the binding result in experiment [2] is given as “binds”.

B3: TOL9-mScarlet (protein, UniProt Q8L860 1-675)
chain: MVNAMVERATSEMLIGPDWAMNLEICDMLNSDPAQAKDVVKGIKKRIGSRNPKAQLLALTLLETIVKNCGDMVHMHVAEKGVIHEMVRIVKKKPDFHVKEKILVLIDTWQEAFGGPRARYPQYYAGYQELLRAGAVFPQRSERSAPVFTPPQTQPLTSYPPNLRNAGPGNDVPEPSAEPEFPTLSLSEIQNAKGIMDVLAEMLSALEPGNKEDLKQEVMVDLVEQCRTYKQRVVHLVNSTSDESLLCQGLALNDDLQRVLTNYEAIASGLPGTSSQIEKPKSETGKSLVDVDGPLIDTGDSSNQANGATSSSGNGVLNQLALPAPPVTNGSANSKIDLLSGDDLALVPVGPPQPASPVASDQNALALIDMFSDNTNNPSPATAPSGNPAQNIPLNPQGHQQPNSQAGEAGLQQSNGFAPQVGYSQFEQPSYGQGVSSPWSSQPAQQPVQPSYGAQDSTAFPPPPWEAQLQDYSPSAESGSPFSPGMHPTQTAFTHAQPVNNNNPYPQIPQTGPPVNNNSPYAQMPQTGQAVANISPYPQIPQNGVYMPNQPNQALGSGYQPQQQQQQQMMMAQYYAQQQQLQQQQQQQAYGNQMGGYGYGYNQQQQGSSPYLDQQMYGLSMRDQTSHQVASSSSTTSYLPPMKPKNKPEDKLFGDLVDISKFKPTKPTSGRAGTM
As for B3, the binding entry in experiment [2] is given as “binds”.

The values are drawn from PMC7615741.
